Assay results taken from publication PMC5974779, “Prediction of Drug-Induced Hepatotoxicity Using Long-Term Stable Primary Hepatic 3D Spheroid Cultures in Chemically Defined Conditions” (Toxicological Sciences, 2018).

Columns and labels:
[1] = system: primary human hepatocytes (PHH) 3D spheroids
PHH 2D sandwich cultures = conditions: cited from earlier work

Chemically defined spheroids (this study) 20x [1]: Negative
Compound: COc1cc2c(cc1OC)C(=O)C(CC1CCN(Cc3ccccc3)CC1)C2 (centres unmarked) [Donepezil]
2Dsw (Xu 2008) 100x (PHH 2D sandwich cultures): Negative
